Results are given in words; binding and its absence hold for the method and conditions named. Binding calls can cover weak binding; strength is not graded here.
Tests used:
[1] = target: SIRP-α mouse BALBc (mouse (BALBc)) (UniProt P97797); experiment: SPR, antibody on GLC chip, SIRP as analyte
[2] = target: SIRP-α mouse NOD (mouse (NOD)) (UniProt P97797); experiment: SPR, antibody on GLC chip, SIRP as analyte

The chains behind the UniProt entries cited, without tags or fusion partners. Where a name states a change or a piece, a line headed by the entry shows the natural chain unless it says otherwise.
UniProt P97797: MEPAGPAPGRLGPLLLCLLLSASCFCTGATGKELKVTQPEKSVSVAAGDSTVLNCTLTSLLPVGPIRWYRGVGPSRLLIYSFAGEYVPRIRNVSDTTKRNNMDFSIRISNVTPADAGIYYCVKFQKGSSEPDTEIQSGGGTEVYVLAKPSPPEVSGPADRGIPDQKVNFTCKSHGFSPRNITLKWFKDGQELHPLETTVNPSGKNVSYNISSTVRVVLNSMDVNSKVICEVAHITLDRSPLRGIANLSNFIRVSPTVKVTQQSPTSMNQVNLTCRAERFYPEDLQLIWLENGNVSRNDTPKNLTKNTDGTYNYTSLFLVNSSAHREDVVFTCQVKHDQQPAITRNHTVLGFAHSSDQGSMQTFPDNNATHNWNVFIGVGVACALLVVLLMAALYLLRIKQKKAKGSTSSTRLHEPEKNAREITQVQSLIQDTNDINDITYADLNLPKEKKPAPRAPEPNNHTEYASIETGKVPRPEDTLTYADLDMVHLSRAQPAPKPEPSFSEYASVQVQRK

| binding [1] | binding [2] | Binder |
| --- | --- | --- |
| binds | binds | Hum1/AB21_HC_Mutall (antibody, V domains shown) VH: EVQLVESGGGVVQPGGSLRLSCAASGFTFSSNAMSWVRQAPGKGLEWVAGISAGGSDTYYPASVKGRFTISRDNSKNTLYLQMNSLRAEDTAVYYCARETWNHLFDYWGQGTLVTVSS VL: SYELTQPPSVSVSPGQTARITCSGGSYSSYYYAWYQQKPGQAPVTLIYSDDKRPSNIPERFSGSSSGTTVTLTISGVQAEDEADYYCGGYDQSSYTNPFGGGTKLTVL |
| binds | binds | Hum9/AB21_HC_Mutall (antibody, V domains shown) VH: EVQLVESGGGVVQPGGSLRLSCAASGFTFSSNAMSWVRQAPGKGLEWVAGISAGGSDTYYPASVKGRFTISRDNSKNTLYLQMNSLRAEDTAVYYCARETWNHLFDYWGQGTLVTVSS VL: SYELTQPPSVSVSPGQTARITCSGGAYSSYYYAWYQQKPGQAPVLVIYSDDKRPSGIPERFSGSSSGTTVTLTISGVQAEDEADYYCGGYDQSSYTNPFGGGTKLTVL |
| binds | binds | Hum8/AB21_HC_Mutall (antibody, V domains shown) VH: EVQLVESGGGVVQPGGSLRLSCAASGFTFSSNAMSWVRQAPGKGLEWVAGISAGGSDTYYPASVKGRFTISRDNSKNTLYLQMNSLRAEDTAVYYCARETWNHLFDYWGQGTLVTVSS VL: SYELTQPPSVSVSPGQTARITCSGGAYSSYYYAWYQQKPGQAPVLVIYSDSKRPSGIPERFSGSSSGTTVTLTISGVQAEDEADYYCGGYDQSSYTNPFGGGTKLTVL |

From patent US20220096649A1
